For at least one entry, the source does not settle the construct or the ends of the probe. A weaker result is weaker than the reference pair of the same experiment.
System: SEP3 (SEPALLATA3) + AG (AGAMOUS)
Assay: EMSA
Conditions: tetramer, almost no tetramers bound; EMSA as in the authors' ref. 20 (buffer, salt, pH, temperature not given); Cy5 probes; unpurified wheat germ TnT proteins; protein translated in vitro; protein details: C-terminal 3xFLAG,C-terminal 5xMyc; label: Cy5

Binding result, binds more weakly:
AGAGAAACATAGAAACCTTCCATGTTTGGCAATTTCATCTTGGAAGTCAGCTTGATTCACTCTCTCTTGTCTTCTTTGTGCATCACAAGAACAACA (double strand) [KNU +5 (96 bp)], AGAGGGTAAGAGAAACATAGAAACCTTCCATGTTTGGCAATTTCATCTTGGAACTTACTCTCTCTTGTCTTCTTTGTGCATCACAAGAACAACAAA (double strand) [KNU -5 (96 bp)], GGTAAGAGAAACATAGAAACCTTCCATGTTTGGCAATTTCATCTTGGAACTTACTCTCTCTTGTCTTCTTTGTGCATCACAAGAACAACAA (double strand) [KNU -5 probe (91 bp)], GGTAAGAGAAACATAGAAACCTTCCATGTTTGGCAATTTCATCTTGGAAGTCAGCTTGATTCACTCTCTCTTGTCTTCTTTGTGCATCACAAGAACAACAA (double strand) [KNU +5 probe (101 bp)]
